Data from patent US20250281614A1.
These are yes or no findings as the source states them, for the method shown. Some results given as binding are weak or reduced against the parent protein; the word gives no strength.

Chains of the proteins cited; added tags and fusions are not shown. Residues count along the entry.
UniProt Q08722, residues 19-139: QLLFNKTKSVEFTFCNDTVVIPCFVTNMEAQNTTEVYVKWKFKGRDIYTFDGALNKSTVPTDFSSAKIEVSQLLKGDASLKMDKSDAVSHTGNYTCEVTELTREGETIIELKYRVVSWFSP

Columns and labels:
[1] = molecular target: constitutively activated SIRPα-IL7RA fusion protein; assay: flow cytometry on a transduced mixture of primary CD4 and CD8 T cells; CD47-Fc staining then anti-Fc
[2] = molecular target: SIRPa-EC IL7Ra-TM_IL7Ra-IC (SIRP-7RTM-7R); assay: flow cytometry on transduced primary CD8+ T cells; CD47-hFc staining then anti-Fc
[3] = molecular target: constitutively activated SIRPα-IL7RA fusion protein; assay: as above
[4] = molecular target: SIRPa-EC_SIRPa-TM_IL7Ra-IC (SIRP-SIRPTM-7R); assay: as above
[5] = molecular target: constitutively activated SIRPα-IL7RA fusion protein; assay: flow cytometry on transduced primary T cells; CD47-Fc staining then anti-Fc

Measured: binding

recombinant human CD47-human Fc (hFc) fusion protein (from UniProt Q08722 19-139) (Fc fusion)
binds: all assays above
